Mtb cholesterol medium: 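Phenotypic screen: M. tuberculosis growth, cholesterol and DPPC medium, 4 days; the read-out is not stated. Tested at 50 µM. Higher reads as more growth inhibition (inferred: compounds with an IC50 in retests scored well above the rest). About 69,000 compounds were tested under these conditions; 0.54% (about 370) showed 50% or more at least once.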
Mtb glucose medium: 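Whole-cell growth test on Mycobacterium tuberculosis, read after 3 days in glucose-containing 7H9 medium; the read-out is not stated. Compounds at 50 µM. Higher reads as more growth inhibition (inferred: compounds with an IC50 in retests scored well above the rest). About 69,000 compounds were tested under these conditions; 1.1% (about 760) showed 50% or more at least once.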

The filed quantity is “Percent Effect” (%).
How 0% and 100% were set is not recorded. Most values in the screen are low, and negative values occur.
The compounds are a random part of those screened.
Two or more numbers in one place are separate tests of the same structure; such repeats can differ widely.

| # | Compound | Mtb cholesterol medium | Mtb glucose medium |
|---|---|---|---|
| 1 | `CC(=O)N1CCCN(C(=O)NCc2ccccn2)CC1` | -26.97% | -5.744% |
| 2 | `O=C(O)C(F)(F)F.O=C(O)C(F)(F)F.[H][C@@]12CN(Cc3ccco3)C[C@]1([H])[C@H](OC)CCN2Cc1cnn(C)c1` | 0.9871% | -11.6% |
| 3 | `CCc1noc(CSc2n[nH]c(-c3ccccn3)n2)n1` | 36.75% | 28.8% & 112.7% |
| 4 | `CCN(CC)C(=O)C1CCCN(CC(=O)Nc2c(C)nn(CC)c2C)C1` (stereo not drawn) | -26.44% | 10.93% |
| 5 | `Cc1nnc(SCC(=O)NCc2ccc3c(c2)CCC(=O)N3)s1` | -3.106% | -33.45% |
| 6 | `Cc1ccc(C(C(=O)NC(C)(C)CN2CCCC2)N(C)C)cc1` (stereo not drawn) | -14.06% | 23.85% |
| 7 | `CN(C)c1cccc(C(=O)N2CCc3ccc(=O)[nH]c3CC2)c1` | -15.95% | -7.673% & -24.09% |
| 8 | `CC(C)c1ncc2c(n1)CN(Cc1nc(-c3cccnc3)no1)CC2` | -23.04% | -32.48% & 1.114% |
| 9 | `Cc1ccc2nc(C)c(C)c(C(=O)N3CCS(=O)(=O)CC3)c2c1` | 1.29% & -14.92% | -5.831% |
| 10 | `Cc1occc1C(=O)N1CCC2(CCCN(Cc3nccs3)C2)C1.O=C(O)C(F)(F)F` (stereo not drawn) | -23.67% | -3.218% & -4.619% |
| 11 | `Cc1noc(CCCC(=O)NC(C)c2nnc3n2CCCCC3)n1` (stereo not drawn) | -2.321% | 42.68% & 3.737% |
| 12 | `CCC(C)NC(=O)CN1CCC2(CC1)OCCO2` (stereo not drawn) | 23.8% | 14.49% |
| 13 | `COCCN1CCCC2(CCN(C(=O)c3cnc(O)cn3)C2)C1=O` (stereo not drawn) | 11.46% | -19.38% |
| 14 | `O=C(O)C(F)(F)F.[H][C@@]12CCN(CC3CCC3)[C@]1([H])CC[C@@H](C(=O)NCc1cccs1)O2` | -9.398% | -5.236% |
| 15 | `CN(CCc1cnn(C)c1)C(=O)C1COc2ccccc2C1` (stereo not drawn) | -4.485% | 7.07% |
| 16 | `CCOCc1nc2c(c(N(C)Cc3nonc3C)n1)CCNCC2` | 7.689% | 3.94% & 0.2813% |
| 17 | `COc1cccc(C2CCCN2C(=O)c2ccc(=O)n(C)c2)c1` (stereo not drawn) | -4.487% | 0.9867% |
| 18 | `CNC(=O)c1ccc(S(=O)(=O)NCCc2ccccn2)cc1` | -10.26% | -1.05% & -23.56% |
| 19 | `Cc1ccc2ncnc(N3CCOCC3c3c(C)nn(C)c3C)c2c1` (stereo not drawn) | -22.28% | -9.697% |
| 20 | `O=C(O)C(F)(F)F.O=C(O)C(F)(F)F.[H][C@@]12CN(Cc3ccccn3)C[C@]1([H])CN(S(=O)(=O)c1cn(C)cn1)C2` | -1.803% | 0.8282% & -23.25% |
| 21 | `CCOCCc1nc(Cc2ccccc2)n[nH]1` | 27.09% | -1.536% & 2.958% |
| 22 | `CCCN(CCC)c1ncc(S(=O)(=O)c2cccc(C)c2)c(N)n1` | -10.11% | -2.765% & 3.112% |
| 23 | `O=S(=O)(NCCn1cc(C2CCOC2)nn1)c1ccc(Cl)cc1` (stereo not drawn) | -23.14% | -29.66% |
| 24 | `COCC(=O)N1CCCC1c1cc(Nc2nnc(C)s2)nc(C)n1` (stereo not drawn) | 17% | -23.97% |
| 25 | `Cn1cc(NC(=O)N2CCC(Cc3ccccc3)CC2)ccc1=O` | -3.829% | -10.94% |
| 26 | `CCC(C)Oc1cc(C(=O)Nc2nnc(C(C)C)[nH]2)ccn1` (stereo not drawn) | 22.21% | 31.06% |
| 27 | `CCNC(=O)NC(=O)CN1CCC(c2cccc(F)c2)C1` (stereo not drawn) | 2.37% | 13.28% |
| 28 | `Cc1cnc(N2C(=O)CSC2c2cccs2)s1` (stereo not drawn) | -0.9678% | 9.698% & 5.618% |
| 29 | `Cc1cc(NCc2nnc3n2CCC3)n2nc(C)c(C)c2n1` | 10.32% | -10.58% |
| 30 | `Cc1cc2cccc(NC(=O)N3CCC(N4CCSCC4)CC3)c2o1` | 4.949% | -0.1348% & 17.92% |
| 31 | `O=S1(=O)N=C(SCc2ccc(Cl)cc2)Nc2ccc(F)cc21` | 1.394% | 14.98% |
| 32 | `[H][C@]12CN(Cc3nc(C)c[nH]3)CC[C@@]1(O)CCN(C(=O)C1CCCC1)C2` | -4.798% | -6.068% & -16.72% |
| 33 | `Cc1nc[nH]c1CN1CCC(C2CCN(CCc3ccccc3)C2)CC1` (stereo not drawn) | 17.82% | 32.73% & 23.65% |
| 34 | `Cc1ccc(N2CC3(COCCN(Cc4cccnc4)C3)OCC2=O)s1.O=C(O)C(F)(F)F.O=C(O)C(F)(F)F` (stereo not drawn) | -15.26% | -17.97% |
| 35 | `CCn1ccnc1CN1CCN(CCOc2cccc(C#N)c2)CC1` | -5.045% | 15.16% |
| 36 | `CN(Cc1ccc(-n2ccnc2)cc1)CC1CCCN1c1cccnn1` (stereo not drawn) | -19.75% | -20.56% |
| 37 | `Cc1noc(C)c1-c1cncc(C2CCCN2Cc2nccs2)n1` (stereo not drawn) | -0.5346% | -7.331% |
| 38 | `O=S(=O)(Cc1ccccc1F)NCCN1CCOCC1` | 11.98% | 3.019% |
| 39 | `CCc1sc(C(=O)Nc2cnn(CC(N)=O)c2)cc1C` | -13.41% | 0.1082% & -14.63% |
| 40 | `[H][C@]12CCN(C(=O)Cc3cccc(OC)c3)CC[C@@]1([H])S(=O)(=O)N(C)C2` | -22.21% | -4.999% |
| 41 | `O=C(O)C(F)(F)F.O=C1CCCN1Cc1nnc2n1CCN(Cc1ccoc1)CC2` | -17.47% | -19.82% |
| 42 | `CN(Cc1ccccc1)c1ncccc1CNC1CCSCC1` | 12.03% | 2.574% |
| 43 | `CC(c1ccccc1)N(C)C(=O)CN1CCCc2cc(F)cc(F)c21` (stereo not drawn) | -3.332% | -16.03% & 26.44% |
| 44 | `CSCC(CCO)NC(=O)Nc1ccc(C)cc1C` (stereo not drawn) | 18.7% | 16.06% |
| 45 | `COCC(=O)N1CCCn2c(CN3CCCCC3)nnc2C1.O=C(O)C(F)(F)F` | -21.41% | -29.56% |
| 46 | `CCCC(=O)N1CCC(c2cc3cccnc3c(O)n2)CC1` | 10.66% | 17.52% |
| 47 | `Cn1ccnc1S(=O)(=O)C(C(=O)N1CCCCC1)c1ccccc1` (stereo not drawn) | -42.33% | -39.82% & -2.368% |
| 48 | `Cn1ncc2c(N[C@@H]3CS(=O)(=O)C[C@H]3O)nc(C(C)(C)C)nc21` | 5.936% | -5.479% |
| 49 | `CCOc1ccc(C(F)(F)F)cc1NC(=O)N1CCC(C(N)=O)CC1` | -20.8% | -17.45% |
| 50 | `Cc1ccc(CN2CCC(O)(Cn3nc(-c4cccs4)oc3=O)CC2)o1.O=C(O)CC(O)(CC(=O)O)C(=O)O` | 20.8% | 2.816% |

The first 5 entries again:

CC(=O)N1CCCN(C(=O)NCc2ccccn2)CC1 gave Mtb cholesterol medium: -26.97%; Mtb glucose medium: -5.744%.
O=C(O)C(F)(F)F.O=C(O)C(F)(F)F.[H][C@@]12CN(Cc3ccco3)C[C@]1([H])[C@H](OC)CCN2Cc1cnn(C)c1 gave Mtb cholesterol medium: 0.9871%; Mtb glucose medium: -11.6%.
CCc1noc(CSc2n[nH]c(-c3ccccn3)n2)n1 gave Mtb cholesterol medium: 36.75%; Mtb glucose medium: 28.8% & 112.7%.
CCN(CC)C(=O)C1CCCN(CC(=O)Nc2c(C)nn(CC)c2C)C1 (stereo not drawn) gave Mtb cholesterol medium: -26.44%; Mtb glucose medium: 10.93%.
Cc1nnc(SCC(=O)NCc2ccc3c(c2)CCC(=O)N3)s1 gave Mtb cholesterol medium: -3.106%; Mtb glucose medium: -33.45%.

From ChEMBL document CHEMBL3988442, “University of Dundee, Small-Polar-MMV Screening Library” (2021).